Results are given in words; binding and its absence hold for the method and conditions named. In cells and extracts the contact can be indirect. Here binding means that the protein was enriched with, or labelled near, the bait; the list need not be complete. Tags and fused reporters may be left off the sequences shown.
T1: Mms19::eGFP (Drosophila) (UniProt Q95U54)
T1 sequence: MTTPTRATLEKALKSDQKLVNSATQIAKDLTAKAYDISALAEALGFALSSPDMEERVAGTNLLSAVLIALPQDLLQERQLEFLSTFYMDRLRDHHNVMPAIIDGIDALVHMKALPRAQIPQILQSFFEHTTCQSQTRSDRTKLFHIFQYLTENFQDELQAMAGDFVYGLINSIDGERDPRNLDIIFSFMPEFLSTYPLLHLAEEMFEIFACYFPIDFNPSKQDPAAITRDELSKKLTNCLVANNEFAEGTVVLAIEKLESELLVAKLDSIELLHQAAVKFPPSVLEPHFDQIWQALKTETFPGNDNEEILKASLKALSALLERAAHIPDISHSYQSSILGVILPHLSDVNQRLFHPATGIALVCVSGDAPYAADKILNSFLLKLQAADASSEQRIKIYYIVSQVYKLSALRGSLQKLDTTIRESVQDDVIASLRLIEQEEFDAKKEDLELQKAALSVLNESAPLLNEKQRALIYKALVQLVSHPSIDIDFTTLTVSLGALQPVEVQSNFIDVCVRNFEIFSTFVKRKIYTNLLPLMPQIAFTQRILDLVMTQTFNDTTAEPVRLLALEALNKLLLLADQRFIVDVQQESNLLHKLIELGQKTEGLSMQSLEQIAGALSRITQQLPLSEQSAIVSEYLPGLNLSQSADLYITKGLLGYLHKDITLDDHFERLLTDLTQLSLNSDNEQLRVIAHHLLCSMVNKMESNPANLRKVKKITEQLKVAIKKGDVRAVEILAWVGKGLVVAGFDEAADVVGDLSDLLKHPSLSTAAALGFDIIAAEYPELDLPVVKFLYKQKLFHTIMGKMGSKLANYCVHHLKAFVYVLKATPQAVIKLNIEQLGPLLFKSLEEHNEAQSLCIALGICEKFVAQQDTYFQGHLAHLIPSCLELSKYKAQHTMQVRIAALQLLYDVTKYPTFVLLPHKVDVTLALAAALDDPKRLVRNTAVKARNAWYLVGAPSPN

The chains behind the UniProt entries cited, without tags or fusion partners. Where a name states a change or a piece, a line headed by the entry shows the natural chain unless it says otherwise.
UniProt O62526: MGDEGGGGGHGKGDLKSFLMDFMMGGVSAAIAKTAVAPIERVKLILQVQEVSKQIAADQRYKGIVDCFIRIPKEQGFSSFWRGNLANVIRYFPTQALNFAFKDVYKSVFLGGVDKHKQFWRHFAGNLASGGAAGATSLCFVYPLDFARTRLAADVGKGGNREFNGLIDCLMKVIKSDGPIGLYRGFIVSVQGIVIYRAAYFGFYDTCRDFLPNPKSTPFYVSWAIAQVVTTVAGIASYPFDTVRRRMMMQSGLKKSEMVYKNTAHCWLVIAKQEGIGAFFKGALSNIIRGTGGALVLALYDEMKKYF


The molecules below were run against T1, Mms19::eGFP (Drosophila) (assay: affinity purification with mass spectrometry; anti-GFP antibody (3E6) on ProteinG-Mag Sepharose beads incubated with crude whole-fly extracts 6 hrs at 4°C; 25mM Hepes, 150mM NaCl, 1mM EDTA; controls: wild-type flies and Imp::eGFP flies).

binding	Molecule
binds	Ant2 (from UniProt O62526)
binds	Mip18 (protein, UniProt Q9VTC4 1-156) MPTEIENINPNVYDRIKERVLTANEEDENVPDPFDKREIFDLIRNINDPEHPLTLEELHVVQEDLIRINDSQNSVHISFTPTIPHCSMATLIGLSIRVKLLRSLPPRFKVTVEITPGTHASELAVNKQLADKERVAAALENNHLAEVINQCIAAKG
binds	Ciao1 (protein, UniProt Q7K1Y4 1-335) MGRLILEHTLQGHKGRIWGVAWHPKGNVFASCGEDKAIRIWSLTGNTWSTKTILSDGHKRTIREIRWSPCGQYLASASFDATTAIWSKSSGEFECNATLEGHENEVKSVSWSRSGGLLATCSRDKSVWIWEVAGDDEFECAAVLNPHTQDVKRVVWHPTKDILASASYDNTIKMFAEEPIDNDWDCTATLTSHTSTVWGIDFDADGERLVSCSDDTTIKIWRAYHPGNTAGVATPDQQTVWKCVCTVSGQHSRAIYDVSWCKLTGLIATACGDDGIRIFKESSDSKPDEPTFEQITAEEGAHDQDVNSVQWNPVVAGQLISCSDDGTIKIWKVTE

Reference: PMC7714366
